Here are results for 52 compounds from the supplement of paper PMC10735217.

The structures appear in SMILES notation. Structures can show the parent of a compound that is named as a salt. This is one part of the list. Single values are uncertain here, since repeats match poorly.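 The human kidney-derived cells carry a stably integrated construct of eight TEAD-binding elements driving luciferase, read by luminescence in a drug-repurposing library screen. A compound counts as a hit when its signal is more than five robust Z scores above the plate mean.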

The test system of the assay is HEK293A TEAD-LUC reporter. The assay is described as follows: TEAD-luciferase reporter activity (YAP activation), robust Z score vs plate; higher = stronger YAP/TEAD activation. The note with it: 24 h.

Regarding `Cc1cccc(C)c1CNc1cc(C(=O)NCCO)cn2c(C)c(C)nc12` [Linaprazan], the TEAD-luciferase reporter activity (compound concentration: 200 nM) is inactive: -1.17, the TEAD-luciferase reporter activity (compound concentration: 2 uM) is inactive: -0.901 and the TEAD-luciferase reporter activity (compound concentration: 10 uM) is inactive: -1.84.
For `Cn1c(=O)c2[nH]cnc2n(C)c1=O` [Aminophylline] the same measures were inactive: -0.552, inactive: -1.2 and inactive: 0.223.
The corresponding values for `COc1cc(/C=C/C(=O)OCCCCO[N+](=O)[O-])ccc1OC(=O)CC[C@@H](C)[C@H]1CC[C@H]2[C@@H]3[C@@H](O)C[C@@H]4C[C@H](O)CC[C@]4(C)[C@H]3CC[C@]12C` are inactive: 3.02, inactive: -1.22 and inactive: -0.657.
The corresponding values for `O=C(O)CCC(=O)NCCc1c[nH]cn1` are inactive: -1.24, inactive: -1.27 and inactive: -0.842.
For the compound `CC(=O)[C@]1(O)Cc2c(O)c3c(c(O)c2[C@@H](O[C@H]2C[C@H](N)[C@H](O)[C@H](C)O2)C1)C(=O)c1ccccc1C3=O` [idarubicin hydrochloride], the TEAD-luciferase reporter activity reads like this: (compound concentration: 200 nM) inactive: -0.465; (compound concentration: 10 uM) inactive: 1.69.
With `CC(=O)[C@]1(O)Cc2c(O)c3c(c(O)c2[C@@H](O[C@H]2C[C@H](N)[C@H](O)[C@H](C)O2)C1)C(=O)c1ccccc1C3=O` [idarubicin], the TEAD-luciferase reporter activity (compound concentration: 2 uM) is inactive: -4.1.
`CCOC(=O)c1ccccc1OC(N)=O`: the TEAD-luciferase reporter activity (compound concentration: 200 nM) was inactive: -0.417, the TEAD-luciferase reporter activity (compound concentration: 2 uM) is inactive: -1.16 and the TEAD-luciferase reporter activity (compound concentration: 10 uM) was inactive: 0.898.
For `CCN(CC)CC(=O)Nc1ccc(OC(=O)Cc2c(C)n(C(=O)c3ccc(Cl)cc3)c3ccc(OC)cc23)cc1` the same measures were inactive: 0.627, inactive: -1.25 and inactive: -0.367.
The corresponding values for `O=C(NCc1ccoc1)c1cnc(Nc2cccc(Cl)c2)nc1C(F)(F)F` are inactive: -2.07, inactive: -0.82 and inactive: 3.96.
For `O=C1C(Cc2ccc(O)cc2)N2C(=O)CCN(C(=O)NCc3ccccc3)C2CN1Cc1ccc2ccccc2c1` (stereo not drawn) the same measures were inactive: 3.28, inactive: -1.28 and inactive: 0.671.
Consider `CC(c1ccc(C#N)cc1)N1CCN(c2ccc(C#N)cc2Cl)C(c2ccc(Cl)cc2)C1` (stereo not drawn) [Giminabant], for which the TEAD-luciferase reporter activity is, setting by setting: (compound concentration: 200 nM) inactive: -0.511; (compound concentration: 2 uM) inactive: 0.146; (compound concentration: 10 uM) inactive: -0.656.
Regarding `CN1C(=O)CC[C@H]1c1cccnc1` [(-)-Cotinine], the TEAD-luciferase reporter activity reads like this: (compound concentration: 200 nM) inactive: -1.23; (compound concentration: 10 uM) inactive: 4.06.
For `O=C(C1CCCN(c2nc3ncccc3o2)C1)N1CCN(Cc2ccccc2)CC1` (stereo not drawn), the TEAD-luciferase reporter activity is, setting by setting: (compound concentration: 200 nM) inactive: -2.02; (compound concentration: 10 uM) active: 5.51.
In the case of `O=C(Nc1ccc(N2CCOCC2)cc1)c1ccccc1Nc1ccc(F)cc1`, the TEAD-luciferase reporter activity is inactive: -0.735 (compound concentration: 200 nM), inactive: -0.504 (compound concentration: 2 uM) and inactive: 4.06 (compound concentration: 10 uM).
Regarding `CCOC(=O)Nc1cc2c(cn1)[nH]c1ccccc12`, the TEAD-luciferase reporter activity (compound concentration: 200 nM) was inactive: -0.615, the TEAD-luciferase reporter activity (compound concentration: 2 uM) is inactive: 0.807 and the TEAD-luciferase reporter activity (compound concentration: 10 uM) was inactive: 1.01.
As to `Cn1c(=O)c2c(ncn2CC(O)CO)n(C)c1=O` (stereo not drawn) [diprophylline], the TEAD-luciferase reporter activity (compound concentration: 2 uM) was inactive: -1.03.
Consider `Cn1c(=O)c2c(ncn2CC(O)CO)n(C)c1=O` (stereo not drawn) [diprophylline, Elan], for which the TEAD-luciferase reporter activity is inactive: -0.856 (compound concentration: 200 nM) and inactive: 3.94 (compound concentration: 10 uM).
Turning to `O=C(Nc1ccccc1)N(CC1=CC(Cc2ccccc2)(NC(=O)C(Cl)(Cl)Cl)CC1)c1cccc(OCCN2CCOCC2)c1` (stereo not drawn), the TEAD-luciferase reporter activity (compound concentration: 200 nM) is inactive: 1.79, the TEAD-luciferase reporter activity (compound concentration: 2 uM) is inactive: -0.512 and the TEAD-luciferase reporter activity (compound concentration: 10 uM) was inactive: 1.02.
With `O=C(NCCS(=O)(=O)O)c1cccs1` [Taurosteine], the TEAD-luciferase reporter activity is, setting by setting: (compound concentration: 200 nM) inactive: -0.723; (compound concentration: 2 uM) inactive: 0.455; (compound concentration: 10 uM) inactive: 0.185.
For `Fc1ccc(C(c2ccccc2)(c2ccccc2F)n2ccnc2)cc1` (stereo not drawn) [flutrimazole] the same measures were inactive: -1.49, inactive: -0.73 and inactive: 4.32.
For `C[C@@H]1Cc2c([nH]c3ccccc23)[C@@H](c2c(F)cc(/C=C/C(=O)O)cc2F)N1CC(C)(C)F` the same measures were inactive: 1.62, inactive: -0.939 and active: 6.45.
For `CCCc1c(OCCCOc2cc(O)c(-c3ccc(F)cc3)cc2CC)cccc1Oc1ccccc1C(=O)O` the same measures were inactive: -0.489, inactive: -2.05 and inactive: -0.55.
With `C/C=C(/C)C(=O)O[C@H]1C(C)=C[C@]23C(=O)[C@@H](C=C(CO)[C@@H](O)[C@]12O)[C@H]1[C@@H](C[C@H]3C)C1(C)C` [Ingenol mebutate], the TEAD-luciferase reporter activity by setting is: (compound concentration: 200 nM) active: 14.5; (compound concentration: 2 uM) active: 24.9; (compound concentration: 10 uM) active: 32.9.
For `N=C(N)NCCCCCCCC(=O)N[C@@H](CC(=O)O)C(=O)N[C@@H](Cc1ccccc1)C(=O)O` the same measures were inactive: 1.35, inactive: -1.57 and inactive: -0.505.
With `C/C=C/C1=C(C(=O)O)N2C(=O)[C@@H](NC(=O)[C@H](N)c3ccc(O)cc3)[C@H]2SC1` [cefprozil], the TEAD-luciferase reporter activity (compound concentration: 2 uM) is inactive: 0.409.
Consider `C/C=C/C1=C(C(=O)O)N2C(=O)[C@@H](NC(=O)[C@H](N)c3ccc(O)cc3)[C@H]2SC1` [Cefprozil], for which the TEAD-luciferase reporter activity was inactive: -1.79 (compound concentration: 200 nM) and inactive: -0.577 (compound concentration: 10 uM).
As for `Cc1cc(C#N)cc(C)c1Oc1nc(Nc2ccc(C#N)cc2)nc2[nH]ccc12`, the TEAD-luciferase reporter activity runs as follows: (compound concentration: 200 nM) inactive: -0.716; (compound concentration: 2 uM) inactive: -1.79; (compound concentration: 10 uM) inactive: 4.53.
The corresponding values for `CC(Oc1ccccc1)C(=O)NC1C(=O)N2C1SC(C)(C)C2C(=O)O` (stereo not drawn) [Phenethicillin potassium] are inactive: 3.94, inactive: -1.09 and inactive: -0.365.
Take `FC(F)(F)C(C(F)(F)F)(C(F)(F)F)C1(F)C(F)(F)C(F)(F)C(F)(F)C(F)(F)C1(F)F` [Oxycyte]: the TEAD-luciferase reporter activity was inactive: -1.4 (compound concentration: 200 nM), inactive: -0.0639 (compound concentration: 2 uM) and inactive: 0.928 (compound concentration: 10 uM).
For `O=S(=O)(c1nc(-c2ccccc2)c(-c2cccc(F)c2)[nH]1)C(F)(F)C(F)F` the same measures were inactive: -1.3, inactive: -2.06 and inactive: 0.236.
`O=C1CCCN1c1ccc(Oc2ccc3c(c2)CCN(C2CCC2)CC3)nc1`: the TEAD-luciferase reporter activity was inactive: -0.54 (compound concentration: 200 nM), inactive: -0.822 (compound concentration: 2 uM) and inactive: 1.36 (compound concentration: 10 uM).
The corresponding values for `CCc1nc2c(C)cc(-c3cn4c(n3)CCCC4)cc2n1Cc1ccc(-c2ccccc2C(=O)O)cc1` are inactive: -1.88, inactive: -1.54 and inactive: -0.606.
In the case of `O=C(NC1CCCN(c2nc3ncccc3o2)C1)c1ccc(F)cc1` (stereo not drawn), the TEAD-luciferase reporter activity (compound concentration: 200 nM) is inactive: -1.65 and the TEAD-luciferase reporter activity (compound concentration: 10 uM) is inactive: -0.0692.
For `CC[C@H](C)[C@H](NC(=O)[C@H](CCCNC(=N)N)NC(=O)[C@H](CC(C)C)NC(=O)[C@H](CC(N)=O)NC(=O)[C@H](CCC(=O)O)NC(=O)[C@@H](N)CCCNC(=N)N)C(=O)N[C@@H](C)C(=O)N[C@@H](CC(C)C)C(=O)N[C@@H](CCCNC(=N)N)C(=O)N[C@@H](Cc1ccc(O)cc1)C(=O)O` the same measures were inactive: -1.42 and inactive: 0.615.
In the case of `C=CCN1C=CC(=O)C(=O)C1C` (stereo not drawn), the TEAD-luciferase reporter activity is inactive: 3.32 (compound concentration: 200 nM), inactive: -1.39 (compound concentration: 2 uM) and inactive: 0.138 (compound concentration: 10 uM).
For the compound `Cc1cc2nc3c(=O)[nH]c(=O)nc-3n(CC(O)C(O)C(O)COP(=O)(O)O)c2cc1C` (stereo not drawn), the TEAD-luciferase reporter activity was inactive: -0.315 (compound concentration: 200 nM) and inactive: -0.628 (compound concentration: 10 uM).
Consider `O=C(NC1CCN(Cc2ccncc2)CC1)c1cc2cc(OC3CCN(c4ccc(C(F)(F)F)cc4)CC3)ccc2o1`, for which the TEAD-luciferase reporter activity is inactive: 0.227 (compound concentration: 200 nM), inactive: -0.685 (compound concentration: 2 uM) and inactive: -2.02 (compound concentration: 10 uM).
For `COc1cc2c(=O)c(-c3ccc(O)cc3)coc2cc1O` [Glycitein] the same measures were active: 5.86, inactive: -0.588 and inactive: -0.353.
The corresponding values for `O=S(=O)(Nc1nnc2cc(OC[C@]34C[C@H]5C[C@H](C[C@H](C5)C3)C4)c(C3CC3)cn12)C1CC1` are inactive: -1.32, inactive: -1.06 and inactive: -1.21.
With `CC(=O)Oc1cc(C(C)C)c(OCCN(C)C)cc1C` [Moxisylyte hydrochloride], the TEAD-luciferase reporter activity is, setting by setting: (compound concentration: 200 nM) inactive: -1.98; (compound concentration: 10 uM) inactive: 0.154.
On to `CC(=O)Oc1cc(C(C)C)c(OCCN(C)C)cc1C` [peptide 6], for which the TEAD-luciferase reporter activity (compound concentration: 2 uM) was inactive: -0.115.
Take `Cc1c(OC(C)C(=O)O)cccc1C(=O)c1ccc(Cl)cc1` (stereo not drawn): the TEAD-luciferase reporter activity is, setting by setting: (compound concentration: 200 nM) inactive: -0.37; (compound concentration: 2 uM) inactive: 0.933; (compound concentration: 10 uM) inactive: -0.311.
The corresponding values for `COC(=O)c1cc(OC)c2c(c1-c1c(CO)cc(OC)c3c1OCO3)OCO2` are inactive: -0.638, inactive: -0.309 and inactive: 0.976.
For `CCCOc1ccc([N+](=O)[O-])cc1NC(C)=O` the same measures were inactive: -1.88, inactive: 0.245 and inactive: 1.76.
Turning to `NCC1(CN)CCCCC1` [1,1-Cyclohexanedimethanamine], the TEAD-luciferase reporter activity by setting is: (compound concentration: 200 nM) inactive: 0.296; (compound concentration: 2 uM) inactive: -0.205; (compound concentration: 10 uM) inactive: -0.921.
With `O=c1cnn([C@@H]2O[C@H](CO)[C@@H](O)[C@H]2O)c(=O)[nH]1`, the TEAD-luciferase reporter activity runs as follows: (compound concentration: 200 nM) inactive: -1.63; (compound concentration: 2 uM) inactive: -1.58; (compound concentration: 10 uM) inactive: -0.264.
For `CCCCCCCCCCCCCCCCCCCCCCCCCC(=O)N[C@@H](CO[C@H]1O[C@H](CO)[C@H](O)[C@H](O)[C@H]1O)[C@H](O)[C@H](O)CCCCCCCCCCCCCC` the same measures were inactive: 3.87, inactive: 0.461 and inactive: 2.51.
As to `CC(C)C[C@H](O)[C@H](O)[C@H](CC1CCCCC1)NC(=O)C(CC(=O)N(CC(=O)N(C)CCc1ccccn1)CC1CCCCC1)Cc1csc(N)n1` (stereo partly drawn), the TEAD-luciferase reporter activity (compound concentration: 200 nM) was inactive: 0.116, the TEAD-luciferase reporter activity (compound concentration: 2 uM) was inactive: -0.381 and the TEAD-luciferase reporter activity (compound concentration: 10 uM) was inactive: 1.7.
Regarding `NC(=O)N1CCC(CC(=O)N2CCC([C@H]3c4ncc(Br)cc4CCc4cc(Cl)cc(Br)c43)CC2)CC1` [lonafarnib], the TEAD-luciferase reporter activity by setting is: (compound concentration: 200 nM) inactive: -1.06; (compound concentration: 2 uM) inactive: -0.236; (compound concentration: 10 uM) inactive: 1.07.
With `CCCCN1C[C@H](O)[C@@H](O)[C@H](O)[C@H]1CO` [Miglustat], the TEAD-luciferase reporter activity by setting is: (compound concentration: 200 nM) inactive: -1.94; (compound concentration: 10 uM) inactive: -0.674.
For the compound `O=C1c2cccc(-c3ccccc3)c2C(=O)C1c1ccc(Cl)cc1` (stereo not drawn), the TEAD-luciferase reporter activity is inactive: 0.469 (compound concentration: 200 nM), inactive: 1.93 (compound concentration: 2 uM) and inactive: 3.86 (compound concentration: 10 uM).
Regarding `CNS(=O)(=O)c1cc(OC)c(OC)c(C(=O)NC[C@@H]2CCCCN2C(=O)OC(C)(C)C)c1`, the TEAD-luciferase reporter activity reads like this: (compound concentration: 200 nM) inactive: -0.259; (compound concentration: 2 uM) inactive: -0.328; (compound concentration: 10 uM) inactive: -0.296.
